# Screening data, single-dose tests

Sequences of proteins named here, by UniProt entry; tags and fusion partners are left off.
UniProt P9WPC5, whole entry: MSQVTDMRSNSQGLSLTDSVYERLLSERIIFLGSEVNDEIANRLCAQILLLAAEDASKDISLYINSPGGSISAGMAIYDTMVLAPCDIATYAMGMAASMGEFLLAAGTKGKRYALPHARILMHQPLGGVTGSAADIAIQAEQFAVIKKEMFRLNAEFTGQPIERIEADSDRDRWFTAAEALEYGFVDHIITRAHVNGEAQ
UniProt P9WPC3, whole entry partner: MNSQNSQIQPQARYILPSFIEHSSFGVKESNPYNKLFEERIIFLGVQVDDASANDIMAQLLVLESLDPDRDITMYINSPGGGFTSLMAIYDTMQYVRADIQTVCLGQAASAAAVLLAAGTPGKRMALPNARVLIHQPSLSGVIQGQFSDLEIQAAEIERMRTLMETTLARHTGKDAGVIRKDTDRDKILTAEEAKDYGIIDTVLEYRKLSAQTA
UniProt P9WFT3, whole entry: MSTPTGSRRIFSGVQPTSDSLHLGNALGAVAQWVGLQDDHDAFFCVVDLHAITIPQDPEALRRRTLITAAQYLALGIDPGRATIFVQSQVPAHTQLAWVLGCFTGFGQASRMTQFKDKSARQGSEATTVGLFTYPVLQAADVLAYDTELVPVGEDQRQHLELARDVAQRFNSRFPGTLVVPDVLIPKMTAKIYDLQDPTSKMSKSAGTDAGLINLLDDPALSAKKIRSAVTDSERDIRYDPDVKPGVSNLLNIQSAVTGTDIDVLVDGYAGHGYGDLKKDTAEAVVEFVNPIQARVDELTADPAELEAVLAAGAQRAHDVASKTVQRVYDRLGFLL

Source: ChEMBL document CHEMBL3988442, “University of Dundee, Small-Polar-MMV Screening Library” (2021).

A: 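Protease assay of ClpP1P2, read by the AMC dye that it sets free. Target: ClpP1P2, Mycobacterium tuberculosis (UniProt P9WPC5 and UniProt P9WPC3). Concentration: 50 µM. Direction is inferred from only a few compounds that gave an IC50; most scored high, so higher reads as stronger inhibition. Most other retested compounds had strongly negative values. Of about 69,000 compounds tested this way, about 10 (0.015%) reached 50% or more in at least one test.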
B: 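Enzyme assay of tryptophanyl-tRNA synthetase; the read-out is not stated. Target: Tryptophan-tRNA ligase, Mycobacterium tuberculosis (UniProt P9WFT3). Compounds at 10 µM. Direction is not recorded; retested compounds ran higher, which suggests that high means inhibition. Size under these conditions: about 65,000 compounds, about 64 of them at 50% or above in at least one test.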

Values are the deposited “Percent Effect”, in %. The controls that fix the scale are not given in the record; negative values are as filed. This is an unselected part of the compounds tested.

{"compound": "CC(C)(C)c1cc(CN2C[C@@H]3CC[C@H](C2)N(Cc2ccccn2)C3)n[nH]1", "A": -4.555, "B": 1.771}
{"compound": "Cc1cc(C(=O)CN2C(=O)c3ccccc3CS2(=O)=O)c(C)[nH]1", "A": -8.441, "B": -4.145}
{"compound": "O=C(NCC1CCCCO1)c1ccc(-c2ccco2)[nH]c1=O", "stereo": "centres unmarked", "A": -42.66, "B": 1.149}
{"compound": "CC(C)c1noc(C(C)N2CCN(CCN3CCCC3=O)CC2)n1", "stereo": "centres unmarked", "A": 6.428, "B": 3.052}
{"compound": "CCOCCC(=O)NC1(c2cccc(Br)c2)CC1", "A": -12.5, "B": -1.852}
{"compound": "O=C(NCc1cnc2n1CCN(Cc1ccoc1)C2)c1ccno1", "A": 10.03, "B": -4.17}
{"compound": "CCO[C@H]1CN(CC2CC2)[C@@H]2CCCO[C@H]12", "A": -1.539}
{"compound": "CC(C)c1nc(C(=O)N2CCc3ccccc3C2C(=O)O)cs1", "stereo": "centres unmarked", "A": 3.392, "B": 1.638}
{"compound": "Cc1cccn2c(CC(=O)N3CCC(Oc4ncccn4)CC3)cnc12", "A": 5.704, "B": -2.688}
{"compound": "Cc1c(C(C)NC2CCCC2)cnn1-c1ccc(F)cc1F", "stereo": "centres unmarked", "A": -3.448, "B": -3.222}
{"compound": "COc1ccccc1S(=O)(=O)N1CCC(Oc2cccnn2)CC1", "A": -10.02, "B": -2.21}
{"compound": "Cc1ccc(-c2cc(CNc3ncnc4c3CCNCC4)no2)cc1", "A": -7.98, "B": -2.304}
{"compound": "c1cncc(OCCNC2Cc3ccccc3C2)c1", "A": -9.38, "B": 3.269}
{"compound": "CC(C)Nc1nc(N2CCOCC2)nc2c1CN(Cc1ccoc1)CC2", "A": 5.223, "B": -1.233}
{"compound": "CCn1nc(C)c2ncnc(NCCn3cccn3)c21", "A": -10.15, "B": -0.5735}
{"compound": "Cc1cnn(CC2CCCN2CC(=O)Nc2cc(C(C)(C)C)no2)c1", "stereo": "centres unmarked", "A": -8.928, "B": 3.155}
{"compound": "O=C1N(CCCc2ccccc2)CCCC1(O)CNCC1CCCCC1", "stereo": "centres unmarked", "A": 8.659, "B": 12.23}
{"compound": "CC(=O)N1CCCC(C(=O)c2cnn(-c3ccc(F)cc3)c2N)C1", "stereo": "centres unmarked", "A": 5.39, "B": -14.65}
{"compound": "Cc1nn(C)c(C)c1C1CCCN1C(=O)CCc1ccco1", "stereo": "centres unmarked", "A": -4.539, "B": -5.946}
{"compound": "Cc1ccc(C(CNCc2cccc3c2OCO3)N2CCOCC2)o1", "stereo": "centres unmarked", "A": -11.13, "B": -1.751}
{"compound": "COc1ccc(C(C)NC(=O)Nc2nnc(C)s2)c(OC)c1", "stereo": "centres unmarked", "A": 11.8, "B": -0.6157}
{"compound": "Cc1c(C(C)NC2CCOCC2)cnn1-c1ccc(F)cc1F", "stereo": "centres unmarked", "A": -3.292, "B": -1.143}
{"compound": "Cc1cccc(C2(CNC(=O)C(C)S(C)(=O)=O)CCCC2)c1", "stereo": "centres unmarked", "A": 5.589, "B": 4.461}
{"compound": "N#Cc1cccnc1NCCNC(=O)N1CCSCC1", "A": -7.346, "B": 5.908}
{"compound": "Cc1ccc([C@]2(O)CC[C@H]3CN(Cc4cccc(Cl)c4Cl)C[C@H]32)nc1", "A": -22.59, "B": -2.258}

Some entries from above, unchanged:

For CC(C)c1noc(C(C)N2CCN(CCN3CCCC3=O)CC2)n1 (centres unmarked) the result was A: 6.428%; B: 3.052%.
For Cc1cnn(CC2CCCN2CC(=O)Nc2cc(C(C)(C)C)no2)c1 (centres unmarked) the result was A: -8.928%; B: 3.155%.
For Cc1ccc(-c2cc(CNc3ncnc4c3CCNCC4)no2)cc1 the result was A: -7.98%; B: -2.304%.